Data published in paper doi:10.1101/2021.04.18.440256.
Read-outs that look alike come from different tables or passages of the source. Results are given in words; binding and its absence hold for the method and conditions named. In cells and extracts the contact can be indirect. Some entries that bind do so weakly or less than the wild type. For some of these results: Sequences can lack the tags named with a protein.

What was measured:
Experiment in all cases: co-IP
[1] = molecular target: HA-tagged DCST2 (mouse Dcst2 ORF-3xHA) (mouse)
[2] = molecular target: T1, HA-tagged DCST1 (Dcst1-3xHA transgene, mouse) (mouse) (UniProt Q059Y8)
T1 sequence: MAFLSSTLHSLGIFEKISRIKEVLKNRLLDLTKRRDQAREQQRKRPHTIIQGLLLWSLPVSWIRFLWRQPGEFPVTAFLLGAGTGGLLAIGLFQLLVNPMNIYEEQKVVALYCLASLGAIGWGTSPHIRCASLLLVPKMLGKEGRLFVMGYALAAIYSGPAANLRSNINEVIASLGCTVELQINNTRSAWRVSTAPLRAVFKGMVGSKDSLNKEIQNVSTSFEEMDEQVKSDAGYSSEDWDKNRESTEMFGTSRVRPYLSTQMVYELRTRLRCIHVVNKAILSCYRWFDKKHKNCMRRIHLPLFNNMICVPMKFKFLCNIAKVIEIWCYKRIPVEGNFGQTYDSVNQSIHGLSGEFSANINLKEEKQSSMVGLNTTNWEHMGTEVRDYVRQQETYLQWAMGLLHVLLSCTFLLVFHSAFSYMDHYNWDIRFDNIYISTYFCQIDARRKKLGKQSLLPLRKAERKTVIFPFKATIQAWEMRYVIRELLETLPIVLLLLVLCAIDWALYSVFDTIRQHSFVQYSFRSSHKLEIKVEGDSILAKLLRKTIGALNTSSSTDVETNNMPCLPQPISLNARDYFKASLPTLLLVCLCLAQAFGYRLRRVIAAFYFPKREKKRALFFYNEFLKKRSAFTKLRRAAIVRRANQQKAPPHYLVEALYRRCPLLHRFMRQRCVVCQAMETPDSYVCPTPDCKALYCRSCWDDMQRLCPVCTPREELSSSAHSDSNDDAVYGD

[3] = molecular target: HA-tagged DCST2 (Dcst2-3xHA transgene, mouse) (mouse)
[4] = molecular target: HA-tagged DCST2 (Dcst2-3xHA transgene, mouse) (mouse); remark: listed apart in the source

B1: FLAG-tagged DCST1 (mouse Dcst1 ORF-3xFLAG) (protein, UniProt Q059Y8 1-732)
chain: T1 sequence
With B1 the binding [1] was “binds”.

B2: IZUMO1 (protein, UniProt Q9D9J7 22-397)
chain: CIKCDQFVTDALKTFENTYLNDHLPHDIHKNVMRMVNHEVSSFGVVTSAEDSYLGAVDENTLEQATWSFLKDLKRITDSDLKGELFIKELLWMLRHQKDIFNNLARQFQKEVLCPNKCGVMSQTLIWCLKCEKQLHICRKSLDCGERHIEVHRSEDLVLDCLLSWHRASKGLTDYSFYRVWENSSETLIAKGKEPYLTKSMVGPEDAGNYRCVLDTINQGHATVIRYDVTVLPPKHSEENQPPNIITQEEHETPVHVTPQTPPGQEPESELYPELHPELYPELIPTVAQNPEKKMKTRLLILLTLGFVVLVASIIISVLHFRKVSAKLKNASDEVKPTASGSKSDQSLSQQMGLKKASQADFNSDYSGDKSEATEN
For B2, the binding [2] was “no binding”, the binding [3] was “no binding” and the binding [4] was “no binding”.
